PubChem BioAssay AID743121 | NCATS | 2013
Aim: 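Partners whose loss is lethal together with topoisomerase I blockade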 (primary screen). Cell system: MDA-MB-231 cells, a human breast cancer line. Knock-down reagent: single siRNA against human genes, 20 nM siRNA (0.8 pmol per well). Time to read-out: 120 h (drug added 48 h after transfection, read 72 h later). Conditions: camptothecin 20 nM (about EC30) for 72 h; vehicle 0.1% DMSO in parallel plates. Measurement: 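Cell viability by ATP luminescence (CellTiter-Glo) as % of non-targeting siRNA wells, and the log2 ratio of viability without drug over viability with camptothecin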. Reading the numbers: log2 vehicle/camptothecin viability: higher = stronger sensitisation to camptothecin. Hit rule: 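Each gene scored by redundant siRNA activity (RSA) over its individual siRNA ratios; a gene is called active at p < 0.001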.
Here is one part, drawn at random, of about 26,000 deposited reagents. 167 of all reagents (0.63%) were called active. 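Calls are per gene from RSA p-values that are not deposited; an individual active-marked siRNA can sensitise only weakly.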 Entries without a mark were called inactive. Reagents against one gene are numbered here. Not all columns of the deposit are shown.

log2 vehicle/camptothecin viability, by target and reagent
PDLIM5 (PDZ and LIM domain 5): #1 -0.161; #2 -0.452; #3 0.532; #4 0.237
IRF2 (interferon regulatory factor 2): #1 -0.74; #2 0.0454; #3 -0.139
POMK (protein O-mannose kinase): #1 -0.481; #2 -0.0327; #3 -0.379; #4 -0.577
CLK3 (CDC like kinase 3): #1 0.0241; #2 -0.102; #3 1.76; #4 0.0555
CYP24A1 (cytochrome P450 family 24 subfamily A member 1): #1 -0.183; #2 0.204; #3 0.00555
NBR1 (NBR1 autophagy cargo receptor): #1 0.12; #2 -0.181; #3 -0.0405; #4 -0.118
TAS1R1 (taste 1 receptor member 1): #1 -0.488; #2 0.262; #3 0.515; #4 -0.0879
UBE2V2 (ubiquitin conjugating enzyme E2 V2): #1 0.428; #2 0.0559; #3 -0.274; #4 0.275
ADAM8 (ADAM metallopeptidase domain 8): #1 -0.0296; #2 -0.405; #3 0.567; #4 -0.459
SIGLEC7 (sialic acid binding Ig like lectin 7): #1 0.377; #2 -0.234; #3 0.476; #4 -0.605
GNE: #1 -0.479; #2 0.0283; #3 -0.613; #4 -0.115
HSP90AB1 (heat shock protein 90 alpha family class B member 1): #1 1.79; #2 0.253; #3 -0.21; #4 0.0713
FBXW9 (F-box and WD repeat domain containing 9): #1 -0.421; #2 1.02; #3 -0.618
PLA2G10 (phospholipase A2 group X): #1 0.0178; #2 0.147; #3 -0.209
ABCC11 (ATP binding cassette subfamily C member 11): #1 -0.265; #2 -0.13; #3 0.0787; #4 -0.505
KAT6B (lysine acetyltransferase 6B): #1 -0.091; #2 0.063; #3 0.0206
CORIN (corin, serine peptidase): #1 0.0159; #2 0.15; #3 0.24; #4 -0.171
MADD (MAP kinase activating death domain): #1 -0.0666; #2 -0.242; #3 0.108; #4 -0.279
ARHGEF5 (Rho guanine nucleotide exchange factor 5): #1 -0.182; #2 -0.00593; #3 0.0545; #4 -0.472

In a second layout: results already given.
| target | reagent | log2 vehicle/camptothecin viability |
| --- | --- | --- |
| UBE2V2 (ubiquitin conjugating enzyme E2 V2) | 4 | 0.275 |
| ADAM8 (ADAM metallopeptidase domain 8) | 1 | -0.0296 |
| ADAM8 (ADAM metallopeptidase domain 8) | 2 | -0.405 |
| ADAM8 (ADAM metallopeptidase domain 8) | 3 | 0.567 |
